# Some of the results follow.
# Test system: T1, CTL2-GFP (C. trachomatis L2/434/Bu, GFP-expressing)
# T1 construct: L2/434/Bu, GFP-expressing
# Set-up: species or system HeLa; Intracellular C. trachomatis growth in HeLa cells, bulk GFP fluorescence relative to DMSO
# Conditions: bulk GFP, single well; 28.5 h, 10 µM; inhibitor
row,SMILES,% of control remaining [%]
1,Cc1ccc2oc(=O)cc(N/N=C(\Cl)C(N)=S)c2c1 [CBK022357],104.315
2,O=C(O)CN(CC(=O)Nc1ccc(Cl)cc1)Cc1ccccc1 [CBK286585],107.789
3,CC1=NN(c2cccc(S(=O)(=O)O)c2C(=O)Nc2ccccc2)C(=O)C1 [CBK017343],88.7999
4,Cc1ccc(Cl)cc1NC(=O)CC1NCCNC1=O (stereo not drawn) [CBK267246],125.733
5,Cn1c(COc2ccccc2Cl)nnc1SCC(=O)N1c2ccccc2Sc2ccccc21 [CBK266001],154.311
6,Nc1ccc2c(-c3ccc(OC(F)(F)F)cc3)ccnc2n1 [CBK067649],100.278
7,CCCn1c(CN2CCOCC2)nc2c1c(=O)n(C)c(=O)n2C [CBK305911],90.3276
8,COCC(=O)N1CCc2sccc2C1c1ccc(NCc2ccc(F)cc2F)cc1 (stereo not drawn) [CBK286460],121.471
9,Cc1cccc2c3c([nH]c12)C1(CCCN(CCc2ccc([N+](=O)[O-])cc2)C1)NCC3 (stereo not drawn) [CBK039558],91.3118
10,CCN(CC)CCCNC(=O)N(CCC#N)C1CCCCC1 [CBK156377],83.8579
11,CC1CCc2c(sc(NC(=O)c3cccs3)c2C(=O)N2CCOCC2)C1 (stereo not drawn) [CBK307101],116.677
12,O=C(Nc1ccccc1Oc1ccc(F)cc1)c1ccc(Cn2cncn2)cc1 [CBK285587],82.006
13,Nc1cccc(-c2nc(-c3cccnc3)cnc2N)c1 [CBK063906],113.019
14,O=C(CSc1ccc(-c2ccncc2)nn1)Nc1ccc(F)cc1 [CBK287297],118.603
15,COc1ccc(C2=NN(c3ccc([N+](=O)[O-])cc3)C(=O)/C2=C\NCCN2CCOCC2)cc1 [CBK264563],127.43
16,COc1ccccc1NC(=O)c1c(NC(=O)Cc2ccccc2)sc2c1CCC(C(C)(C)C)C2 (stereo not drawn) [CBK264102],99.3213
17,COCCNC(=O)C(C)SCc1ccccc1 (stereo not drawn) [CBK028889],105.255
18,CCN(CC)C(=O)c1[nH]c2ccccc2c1NS(=O)(=O)c1ccc(C(F)(F)F)cc1[N+](=O)[O-] [CBK050109],102.234
19,O=S(=O)(c1ccc2c(c1)nc1n2CCC1)N1CCOCC1 [CBK019200],145.731
20,Cc1ccc(NS(=O)(=O)c2cc(C(=O)N3CCN(Cc4ccc5c(c4)OCO5)CC3)ccc2C)cc1 [CBK268521],82.6557
21,c1cnc2c(c1)cc([C@H]1CCCO1)n2CCN1CCCC1 [CBK282289],119.494

row,SMILES,% of control remaining [%]
1,Cn1cncc1C(=O)N1CCc2ccccc21 [CBK200412],102.531
2,Cc1c(OCc2ccccc2)ccc2c1OC1(CCN(C(=O)c3ccsc3)CC1)CC2=O [CBK156445],82.587
3,c1cc2[nH]ccc2c(N2CCNCC2)n1 [CBK051673C],111.494
4,Cc1ccccc1Sc1cccc(C(F)(F)F)n1 [CBK115243],136.37
5,Cc1c(S(=O)(=O)N2CCC(N)C2)sc2ccc(Cl)cc12 (stereo not drawn) [CBK164970],77.6249
6,Cc1ccc2c(c1)CC(=O)NC21CCN(CCc2noc3ccccc23)CC1 [CBK081072],124.577
7,O=C(c1ccc(F)cc1F)N1CCC(O)(c2ccccn2)CC1 [CBK283671],87.5664
8,CCCc1ccc(S(=O)(=O)N2CCOC(c3cnn(CC)c3)C2)cc1 (stereo not drawn) [CBK306169],120.761
9,Cc1c(Cl)cccc1NC(=O)CSc1nccn1C [CBK270297],134.412
10,Cc1sc2nc(C3CC3)n(C3CCNCC3)c(=O)c2c1C [CBK284228],141.697
11,FC(F)(F)c1ccnc(OC2CCNCC2)n1 [CBK113294],142.671
12,Cc1nn(-c2ccccc2)c(Cl)c1CN1C(=O)NC2(CCCC2)C1=O [CBK305070],104.616
13,O=C(c1cccnc1)N1CCN(c2ncccn2)CC1 [CBK144516],111.677
14,COc1ccc2[nH]cc(CCNC(=O)c3ccc(Cl)c(Cl)c3)c2c1 [CBK115870],14.1597
15,Cc1cccc(-c2ncc(NC(=O)c3cccc(N(C)C)c3)nc2-c2ccco2)c1 [CBK036654],130.543
16,CC(Oc1ccc(S(=O)(=O)N2CCN(C)CC2)cc1)C(=O)NC1CCCCC1 (stereo not drawn) [CBK269943],86.8298
17,Cc1csc2c(N3CCC(NCCc4ccnn4C)CC3)ncnc12 [CBK307515],92.1851
18,COc1ccc(C(NC(=O)C2CCN(CCOc3ccc4ccccc4c3)CC2)c2ccccc2C)cn1 (stereo not drawn) [CBK148792],24.5908
19,CCCCN(C)c1c(C)nc2c(Oc3nc4ccccc4s3)cccn12 [CBK147192],75.5332
20,Cn1nc(C2CCN(C(=O)c3ccccc3F)CC2)c2cccnc21 [CBK285019],70.648
21,CCCn1ccnc1CNc1nc(C)nc2c1c(C)nn2C [CBK307459],90.7308

row,SMILES,% of control remaining [%]
1,CN(C)C(=O)CN1C(=O)[C@H]2CCCN2C(=O)c2ccccc21 [CBK282854],118.128
2,CSc1ccc(-c2cnc3nc(N)ccc3c2)cc1 [CBK081169],122.636
3,Oc1cc2cccnc2nc1-c1ccc(OCc2ccccc2)c(F)c1 [CBK073708],100
4,Cc1ncsc1CCOc1ncccc1C(F)(F)F [CBK115781],115.551
5,Cc1ccccc1-c1nnc2n1CCCCC2 [CBK200076A],111.139
6,COc1cc(CNc2cncc(-c3ccc(N)cc3)n2)cc(OC)c1OC [CBK065483],100.839
7,CCCNC(=O)Cn1cnc2sc(C)c(C)c2c1=O [CBK305863],142.47
8,Nc1ncc(-c2ccoc2)nc1NCc1ccncc1 [CBK063656],158.559
9,CCOc1cc(/C=C2\SC(=N)NC2=O)ccc1OCc1ccc(Br)cc1 [CBK263813],129.998
10,COc1cccc(C(=O)Nc2nnc(-c3ccco3)o2)c1 [CBK287421],106.804
11,Cc1sc(-c2c(F)cccc2F)nc1O [CBK067729],55.0398
12,C[C@@H]1CN(Cc2ccccc2)C[C@H](C)N1 [CBK001569],124.832
13,CCOc1ccccc1C(=O)N1CCC(Cc2ccccc2-c2ccccc2)(C(N)=O)CC1 [CBK285910],115.913
14,Cc1nc2c(OCC(=O)C(C)(C)C)cccn2c1N(C)C(=O)C1CCCCC1 [CBK147145],113.967
15,CSCCOc1nc2ccccc2nc1N1CCCC1 [CBK115770],131.4
16,CC(=O)N1CCC(N2C[C@H](O)C[C@H]2c2nc(C3CC3)no2)CC1 [CBK288845],106.54
17,COc1ccc(-c2cc(C(=O)Nc3cnc4ccccc4c3)cnc2-c2cccc(C)c2)cn1 [CBK037425],108.364
18,O=C1COc2ccccc2C/C=C/C[C@H]2CN(C(=O)CN3CCCCCC3=O)CC[C@H]2N1 [CBK292116],119.799
19,CNCC1CCN(S(=O)(=O)c2ccc(OCc3ncnn3C)cc2)CC1 [CBK304309C],129.549
20,O=C(CCNC(=O)c1ccc(Br)o1)NCc1ccccc1Cl [CBK294454],145.441
21,Cc1cc(C)nc(SCc2csc(N)n2)n1 [CBK019838],97.1569

row,SMILES,% of control remaining [%]
1,COc1ccc(C(=O)c2sc3nc(C)cc(C)c3c2N)cc1 [CBK115362],106.204
2,O=C(CN1CCC(c2ccc(F)cc2)CC1)N1CCCCC1 [CBK283640],86.0049
3,NC(=O)CN1CCC(Oc2nccnc2OCc2cccnc2)CC1 [CBK083165],69.1898
4,Cc1cc(-c2nc3ncccc3o2)ccc1NC(=S)NC(=O)c1cc2ccccc2o1 [CBK268922],119.719
5,O=c1[nH]c2ncc(-c3ccncc3)nc2n1C1CCCC1 [CBK064972],147.564
6,C[C@@H]1CN(C(=O)c2nccc3ccccc23)C[C@H](C)O1 [CBK200233],128.936
7,O=C(NC(c1ccc2ccccc2n1)c1cccs1)C1CCNCC1 (stereo not drawn) [CBK148331],100
8,O=C1Nc2cc(Cl)ccc2C(=O)N2CC[C@H](NC(=O)N3CCOCC3)[C@@H]12 [CBK289340],111.854
9,O=C(CC1CCN(C(=O)CC2CCCCC2)CC1)NCc1ccccc1N1CCCC1 [CBK285962],121.206
10,COc1cccc(NC(=S)NCCCN2CCOCC2)c1 [CBK264548],74.7755
11,CN1CCN(CCOC(=O)N2CCCC(C(F)(F)F)C2)CC1 (stereo not drawn) [CBK200207],113.094
12,Fc1ccc(-c2nccnc2OCc2ccccn2)cc1 [CBK106894],112.417
13,C=CCNC(=O)N[C@H]1[C@H](O)[C@@H](N2CCN(c3ccccc3OC)CC2)[C@@H]2OC[C@H]1O2 [CBK288818],102.793
14,CC(CCc1ccccc1)NC(=O)CC1COc2ccccc2O1 (stereo not drawn) [CBK266203],124.165
15,Cc1c(F)cccc1CNCc1ccc(CNC(=O)OC(C)(C)C)cc1 [CBK056708],168.145
16,CC(=O)C(C)n1c(CN2CCCC(C)C2)nc2c1c(=O)n(C)c(=O)n2C (stereo not drawn) [CBK306061],138.545
17,CC(C)(C)C(=O)NCCn1c(=O)oc2ccccc21 [CBK282885],113.689
18,CN1Cc2ccccc2CC1C(=O)N1CCc2ncc(Cl)cc2C1 (stereo not drawn) [CBK282568],144.777

# Not a retest: four of the compounds above.
row,SMILES,% of control remaining [%]
15,Cc1c(F)cccc1CNCc1ccc(CNC(=O)OC(C)(C)C)cc1 [CBK056708],168.145
16,CC(=O)C(C)n1c(CN2CCCC(C)C2)nc2c1c(=O)n(C)c(=O)n2C (stereo not drawn) [CBK306061],138.545
17,CC(C)(C)C(=O)NCCn1c(=O)oc2ccccc21 [CBK282885],113.689
18,CN1Cc2ccccc2CC1C(=O)N1CCc2ncc(Cl)cc2C1 (stereo not drawn) [CBK282568],144.777

# Reference: PMC12040169 (PLOS Biology, 2025)
